About 13,000 (3.2%) of roughly 400,000 compounds were called active. The shares of active, inactive and inconclusive entries below differ from those in the screen. Calls follow the shape of the dose curve; as a rule, active = well fitted cell-killing curve with a large enough effect; inconclusive = small, poorly fitted or top-dose-only effect, or effect the other way; inactive = flat fitted curve, though single readings scatter. A potency beside an inconclusive call is a rough fit, not a confirmed value.
Assay: qHTS assay for MDR1-selective chemotherapeutics: Primary screen using the drug-selected MDR subline cells KB-V1; also: nearly all actives have a fitted effect of over 60% in size
Settings: KB-V1 MDR cells viability, CellTiter-Glo, 72 h; activity change, negative = cytotoxicity: at 46.1 µM (top of the series)
In short: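 Cells of the MDR subline KB-V1 are plated, dosed with compound at multiple concentrations, and incubated 72 h at 37 degrees C; CellTiter-Glo is then added and luminescence read after 10 min.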
% is scaled to controls: 0 for no effect and ±100 for the full control effect; potency is read from the fitted curve at half-maximal effect.

Structure (SMILES)	Potency	activity change, negative = cytotoxicity
Cc1cc(C(=O)CSc2nnc(-c3cccs3)n2Cc2ccccc2)c(C)n1C	inactive	–
O=C(Nc1ccccc1N1CCN(C(=O)c2ccc(Cl)cc2)CC1)c1ccc([N+](=O)[O-])o1	inconclusive: 29.1 µM [cytotoxic, single point]	–
CC(=O)N(CCC(c1ccco1)C(C)C)Cc1ccc(Cl)cc1 (stereo not drawn)	inconclusive: 16.4 µM [cytotoxic, single point]	–
CCOc1ccc(CNC(=O)c2cnc(SC)nc2C)cc1	inactive	–
CCOC(=O)C1CCN(C(=O)c2nn(-c3ccc(C)cc3)c(=O)n(C)c2=O)CC1	inactive	–
CCC(=O)N1CCCC(C)(C(=O)Nc2ccc(OC(F)F)cc2)C1 (stereo not drawn)	inactive	–
O=C(c1ccccc1)c1ccc(N2CCN(C(=O)c3ccc(F)cc3F)CC2)c(F)c1	inconclusive: 29.1 µM [cytotoxic, single point]	–
COc1ccc2cc(C(c3nnnn3CCc3ccccc3)N3CCCC(C)C3)c(=O)[nH]c2c1 (stereo not drawn)	active: 18.4 µM	–
COc1ccc(N2CCN(C(=O)c3ccc(N(C)S(=O)(=O)c4ccc(C)cc4)cc3)CC2)cc1	inconclusive: 7.31 µM [cytotoxic, partial curve]	–
O=C(COC(=O)c1ccc(Cl)nc1)NCCc1ccccc1	inactive	–
O=C(O)CCc1nc(-c2ccccc2Cl)no1	inconclusive: 18.4 µM [rising, partial curve]	–
COc1cc(NC(=O)c2sc3nc(C)nc(N4CCOCC4)c3c2C)cc(OC)c1OC	active: 23.1 µM	–
COc1ccccc1/C=C/C1C(C(=O)OCC(C)C)=C(C)N=C2SCCC(=O)N21 (stereo not drawn)	inconclusive: 13 µM [cytotoxic, partial curve, poor fit]	–
COCCCn1c(SCC(=O)N2CCCC(C)C2)nnc1-c1ccco1 (stereo not drawn)	inconclusive: 11.6 µM [cytotoxic, partial curve, poor fit]	–
O=c1cc(CN(Cc2ccccc2)Cc2ccccc2)c2ccccc2o1	inactive	–
COc1ccc2cc3cc(C(=O)NC4CC4)sc3nc2c1	inconclusive: 18.4 µM [cytotoxic, single point]	–
CCCCOc1ncnc2c1[nH]c1ccc(OCC)cc12	inconclusive: 5.8 µM [cytotoxic, full curve]	–
Cc1cc(C)c(C#N)c(SCc2cc3c(cc2Cl)OCO3)n1	inconclusive: 20.6 µM [cytotoxic, single point]	–
COc1cc(C(=O)N(C(C)C)C2CCCCC2)cc(OC)c1OC	inconclusive: 8.2 µM [cytotoxic, partial curve]	–
c1ccc(CSc2nnc(SCc3ccccn3)s2)nc1	active: 16.4 µM	–
COC(=O)c1ccc(OCC2c3cc(OC)c(OC)cc3CCN2C(=O)Cc2ccc(OC)c(OC)c2)cc1 (stereo not drawn)	–	inconclusive: 4.21%
C[C@H](CO)N1C[C@H](C)[C@@H](CN(C)C(=O)NC2CCCCC2)Oc2c(NC(=O)C3CCCCC3)cccc2C1=O	inactive	–
O=C(Nc1cccc(Cl)c1)c1ccc2c(c1)SC1=NS(=O)(=O)CCN12	inconclusive: 20.6 µM [rising, partial curve]	–
Cc1nc(SCC(=O)NCc2ccco2)[nH]c(=O)c1C	inconclusive: 32.6 µM [cytotoxic, partial curve, poor fit]	–
Cc1cc2ccccc2c(=O)n1CC(=O)NCCC1=CCCCC1	inconclusive: 23.1 µM [cytotoxic, single point]	–

Structure (SMILES)	Potency	activity change, negative = cytotoxicity
COc1ccc(Cc2nc3ccc(C(=O)NCCCSC)cc3o2)cc1OC	inconclusive: 16.4 µM [cytotoxic, single point]	–
O=C(N/N=C/c1cccc2ccccc12)c1cc2ccccc2o1	inconclusive: 29.1 µM [cytotoxic, single point]	–
COc1ccc(S(=O)(=O)N(CCCN2CCCC2=O)Cc2cc3c(C)cc(C)cc3[nH]c2=O)cc1	inconclusive: 23.1 µM [cytotoxic, partial curve, poor fit]	–
COc1cccc(/C=C/C(=O)OCC(=O)N2CCN(c3ccccc3)CC2)c1	inactive	–
C=CCn1c(C)c(C(C)=O)c(N2CCN(c3ccccc3)CC2)nc1=S	inactive	–
CCNc1nc(N)c(C(=O)C23CC4CC(CC(C4)C2)C3)s1	inactive	–
CC(=O)N1CCc2c(sc3c2c(=O)n(-c2ccccc2)c(=O)n3CC(=O)c2ccc(F)cc2)C1	inactive	–
CCc1ccccc1NC(=S)/N=C(\N)Nc1nc(C)c2cc(C)ccc2n1	active: 6.51 µM	–
CCCSc1nnc(NC(=O)Cc2ccc(OC)c(OC)c2)s1	inconclusive: 20.6 µM [cytotoxic, single point]	–
O=C(N/N=C\c1ccc(Sc2ccccn2)o1)c1cccc(F)c1	inconclusive: 23.1 µM [cytotoxic, single point]	–
Cc1cn2c(=O)c(S(=O)(=O)NCCc3ccc(Cl)cc3)c(C)nc2s1	inactive	–
Cc1cc(C)cc(NC(=S)Nc2ccccn2)c1	inconclusive: 23.1 µM [cytotoxic, single point]	–
Cc1ccc(S(=O)(=O)Nc2ccc3ccccc3c2)cc1	inconclusive: 20.6 µM [cytotoxic, single point]	–
Cc1ccc2c(C(=O)CCl)c(C)[nH]c2c1	inconclusive: 29.1 µM [cytotoxic, single point]	–
Cc1ccc(S(=O)(=O)Cc2ccc(C(=O)OCc3ccccc3)cc2)cc1	inconclusive: 29.1 µM [cytotoxic, single point]	–
CCOC(=O)c1ccc(NC(=O)NCc2cccnc2)cc1	inactive	–
COc1ccc(-c2nc3sc(CCNC(=O)c4ccc(C(C)(C)C)cc4)c(C)n3n2)cc1	inactive	–
CC1(C)CC(=O)C2=C(C1)Nc1ccccc1[S@]2=O	inconclusive: 0.0052 µM [rising, full curve, poor fit]	–
CCOC(=O)c1c(C)[nH]c(C(=O)CN2C(=O)NC(C)(c3ccc4ccccc4c3)C2=O)c1C (stereo not drawn)	active: 10.3 µM	–
COc1cc2c(cc1OC)C(C)N(C(=O)CCc1c[nH]c3ccccc13)CC2 (stereo not drawn)	inconclusive: 23.1 µM [cytotoxic, single point]	–
Cc1scc(C(=O)NNC(=S)NCC2CCCO2)c1C (stereo not drawn)	inactive	–
CCCCCCn1c(N2CCN(c3ccccc3)CC2)nc2c1c(=O)n(C)c(=O)n2C	inconclusive: 23.1 µM [cytotoxic, single point]	–
CC(C)c1ccc(NC(=O)c2cc(S(=O)(=O)NCCC3=CCCCC3)ccc2F)cc1	inconclusive: 29.1 µM [cytotoxic, single point]	–
COc1ccc(NC(=O)c2cc(S(=O)(=O)N3CCCC3)oc2C)cc1	inconclusive: 4.11 µM [cytotoxic, partial curve]	–
O=C(COc1cccc(C(F)(F)F)c1)NCC(c1cccs1)N1CCOCC1 (stereo not drawn)	inactive	–

Individual results from the results shown:
Entry for COc1ccc(S(=O)(=O)N(CCCN2CCCC2=O)Cc2cc3c(C)cc(C)cc3[nH]c2=O)cc1 under Potency: inconclusive: 23.1 µM [cytotoxic, partial curve, poor fit]
Entry for COc1ccc(-c2nc3sc(CCNC(=O)c4ccc(C(C)(C)C)cc4)c(C)n3n2)cc1 under Potency: inactive
Entry for Cc1cc(C)cc(NC(=S)Nc2ccccn2)c1 under Potency: inconclusive: 23.1 µM [cytotoxic, single point]
Entry for CCOC(=O)c1c(C)[nH]c(C(=O)CN2C(=O)NC(C)(c3ccc4ccccc4c3)C2=O)c1C (stereo not drawn) under Potency: active: 10.3 µM

Additional entries:

Structure (SMILES)	Potency	activity change, negative = cytotoxicity
O=C(Cc1cccs1)N1CCN(c2nc(-c3ccc(Cl)cc3)cs2)CC1	active: 8.2 µM	–
C=CCNC(=O)c1c(N)n(-c2ccc3c(c2)OCO3)c2nc3ccccc3nc12	inactive	–
CSc1cccc(NC(=S)N2CCC(N(C)C3CCCC3)CC2)c1	inconclusive: 20.6 µM [cytotoxic, partial curve, poor fit]	–
COc1cccc(CN(C)CC(=O)Nc2sc3c(c2C#N)CCC3)c1	inconclusive: 10.3 µM [cytotoxic, partial curve]	–
CCOC(=O)C1CCC(CN(Cc2ccc(OC)cc2)S(=O)(=O)c2ccc(F)c(C(=O)Nc3cc(Cl)ccc3OC)c2)CC1 (stereo not drawn)	inactive	–
CC1CC(=O)c2c(cc3c(-c4c(O)cc(O)c5c(O)c6c(cc45)OC(C)CC6=O)c(O)cc(O)c3c2O)O1 (stereo not drawn)	inconclusive: 20.6 µM [cytotoxic, single point]	–
CCC(C)c1ccccc1NC(=O)COC(=O)c1ccc2[nH]c3c(c2c1)CCCC3 (stereo not drawn)	active: 20.6 µM	–
Cn1c(=O)c2c(-c3ccccc3)n(-c3ccccc3O)cc2n(C)c1=O	inactive	–
CC(C)CC(=O)N1CCN(S(=O)(=O)c2ccc(F)cc2)CC1	inconclusive: 29.1 µM [cytotoxic, single point]	–
c1cncc(CNC2CCCc3ccccc32)c1 (stereo not drawn)	inconclusive: 32.6 µM [cytotoxic, single point]	–
COc1ccc(C=C(C#N)c2ccc(OC)cc2)cc1	inconclusive: 29.1 µM [cytotoxic, single point]	–
CCNC(=O)C1(C)CCCN(C(=O)c2cc(-c3cccs3)oc2C)C1 (stereo not drawn)	inactive	–
Cc1sc(NC(=O)c2ccco2)c(CN2CCN(c3ccccc3)CC2)c1C	inconclusive: 29.1 µM [cytotoxic, single point]	–
CCOC(=O)c1ccc(NC(=O)C(CC)Sc2nncn3c2cc2oc(C)cc23)cc1 (stereo not drawn)	inactive	–
O=C(OCC(=O)N1CCCc2ccccc21)c1ccccc1NCCO	inconclusive: 23.1 µM [cytotoxic, single point]	–
CN1C[C@@H]2C(c3ccc(Cl)nc3)C3(c4ccc(C#N)cc4)CC2(C3)[C@H]1c1ccccc1 (stereo partly drawn)	inactive	–
COc1ccc(Cl)cc1-c1cc(C(=O)NCC2CCCCC2)[nH]n1	inactive	–
O=C(c1ccc2nc(-c3ccco3)c(-c3ccco3)nc2c1)N1CCN(c2ncccn2)CC1	inconclusive: 1.46 µM [cytotoxic, full curve]	–
Nc1c(S(=O)(=O)c2ccccc2)c2nc3ccccc3nc2n1Cc1ccco1	active: 23.1 µM	–
CCOC(=O)c1c(NC(=O)C2C3C=CC(CC3)C2C(=O)O)sc(C)c1CC (stereo not drawn)	inconclusive: 11.6 µM [cytotoxic, partial curve]	–
CCn1c(O)c(N=NC(=O)c2cccs2)c2ccccc21	active: 9.2 µM	–
COC(=O)c1c(-c2cccnc2)csc1NC(=O)c1cc(C)on1	inactive	–
Cn1c(CNC(=O)CNS(=O)(=O)c2ccc(Cl)cc2)cc(=O)n(C)c1=O	inconclusive: 8.2 µM [rising, partial curve, poor fit]	–

Source: PubChem BioAssay AID1347076 (National Center for Advancing Translational Sciences (NCATS), 2019)
